US20230165824A1, “METHODS, SYSTEMS AND COMPOSITIONS FOR INHIBITION OF CELLULAR DYSFUNCTION AND CELL DEATH WITH DEUTERATED PUFAs” (BioJiva LLC, priority 2021, published 2023)
For at least one compound, name, drawing or mass did not settle the structure.

Assay: Determination of D2-AA and D2-LA concentrations in CSF and RBCs in a single patient (Example 1)
Conditions: 3 and 6 months combined
Text: This example determines the relative concentration of D2-AA in the CSF and in RBCs in order to determine a correlation between these two concentrations. Specifically, a patient was continuously provided with a daily dose of 9 grams of D2-LA ethyl ester (which is 8.64 grams of active discounting for impurities and removal of the ethyl ester) over about a six-month period. Periodic samples of blood and CSF were taken and the concentration of both D2-LA and D-2AA in both the RBCs and the CSF were measured. In all cases, the D2-AA was obtained by deacylation of the ethyl ester of linoleic acid in the gastrointestinal tract followed by conversion of D2-LA in vivo to D2-AA.

[2H]C([2H])(/C=C\CCCCC)/C=C\CCCCCCCC(=O)O [D2-LA, 11,11-D2-Linoleic Acid]
Ratio of D2-LA to D2-AA in RBCs at 3 and 6 months (represented together): 2.5:1+/−0.4
